Experimental data reported in the supplement of paper PMC10849652.
Some of the results follow.

Protein sequences, listed by entry. Tags and fused reporters are not part of them. Lines headed by an entry give the natural chain unless they say otherwise; changes in a name come on top.
UniProt Q0VGE8: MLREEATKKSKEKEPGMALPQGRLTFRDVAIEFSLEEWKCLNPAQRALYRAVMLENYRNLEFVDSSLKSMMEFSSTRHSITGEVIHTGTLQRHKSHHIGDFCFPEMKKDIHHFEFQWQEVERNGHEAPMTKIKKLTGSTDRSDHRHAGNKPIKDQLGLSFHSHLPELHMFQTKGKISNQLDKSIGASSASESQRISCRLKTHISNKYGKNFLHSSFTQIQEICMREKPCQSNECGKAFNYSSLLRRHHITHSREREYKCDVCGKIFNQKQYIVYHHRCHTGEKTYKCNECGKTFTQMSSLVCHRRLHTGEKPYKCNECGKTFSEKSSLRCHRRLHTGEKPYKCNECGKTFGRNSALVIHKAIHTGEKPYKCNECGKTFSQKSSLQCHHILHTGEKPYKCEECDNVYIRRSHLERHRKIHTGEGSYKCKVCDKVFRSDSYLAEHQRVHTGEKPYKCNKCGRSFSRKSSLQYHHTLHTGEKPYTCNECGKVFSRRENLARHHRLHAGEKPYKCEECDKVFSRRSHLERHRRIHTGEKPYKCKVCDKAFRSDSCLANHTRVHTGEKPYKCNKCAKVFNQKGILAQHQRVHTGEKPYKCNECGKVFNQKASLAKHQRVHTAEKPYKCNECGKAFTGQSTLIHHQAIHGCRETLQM
UniProt Q8NHG8: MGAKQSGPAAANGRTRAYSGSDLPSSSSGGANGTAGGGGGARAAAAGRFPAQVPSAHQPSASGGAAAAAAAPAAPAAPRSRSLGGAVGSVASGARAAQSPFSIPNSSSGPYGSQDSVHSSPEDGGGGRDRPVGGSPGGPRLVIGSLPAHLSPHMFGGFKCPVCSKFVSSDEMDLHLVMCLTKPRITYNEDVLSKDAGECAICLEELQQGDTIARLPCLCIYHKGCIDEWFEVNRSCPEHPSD
UniProt P59817: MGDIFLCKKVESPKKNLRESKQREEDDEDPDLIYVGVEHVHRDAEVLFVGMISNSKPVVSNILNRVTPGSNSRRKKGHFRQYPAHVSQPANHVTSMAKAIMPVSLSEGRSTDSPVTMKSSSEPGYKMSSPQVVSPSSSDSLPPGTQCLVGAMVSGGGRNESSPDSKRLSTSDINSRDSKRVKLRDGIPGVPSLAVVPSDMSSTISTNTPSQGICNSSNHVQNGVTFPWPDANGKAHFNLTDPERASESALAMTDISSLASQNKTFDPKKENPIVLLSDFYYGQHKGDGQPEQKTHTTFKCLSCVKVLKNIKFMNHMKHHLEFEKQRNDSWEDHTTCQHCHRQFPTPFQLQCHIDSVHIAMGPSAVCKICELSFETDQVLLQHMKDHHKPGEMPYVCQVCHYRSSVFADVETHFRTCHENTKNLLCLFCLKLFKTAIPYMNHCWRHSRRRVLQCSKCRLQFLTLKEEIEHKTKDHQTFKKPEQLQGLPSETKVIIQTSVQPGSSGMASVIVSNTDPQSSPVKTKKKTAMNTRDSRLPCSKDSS
UniProt Q99676: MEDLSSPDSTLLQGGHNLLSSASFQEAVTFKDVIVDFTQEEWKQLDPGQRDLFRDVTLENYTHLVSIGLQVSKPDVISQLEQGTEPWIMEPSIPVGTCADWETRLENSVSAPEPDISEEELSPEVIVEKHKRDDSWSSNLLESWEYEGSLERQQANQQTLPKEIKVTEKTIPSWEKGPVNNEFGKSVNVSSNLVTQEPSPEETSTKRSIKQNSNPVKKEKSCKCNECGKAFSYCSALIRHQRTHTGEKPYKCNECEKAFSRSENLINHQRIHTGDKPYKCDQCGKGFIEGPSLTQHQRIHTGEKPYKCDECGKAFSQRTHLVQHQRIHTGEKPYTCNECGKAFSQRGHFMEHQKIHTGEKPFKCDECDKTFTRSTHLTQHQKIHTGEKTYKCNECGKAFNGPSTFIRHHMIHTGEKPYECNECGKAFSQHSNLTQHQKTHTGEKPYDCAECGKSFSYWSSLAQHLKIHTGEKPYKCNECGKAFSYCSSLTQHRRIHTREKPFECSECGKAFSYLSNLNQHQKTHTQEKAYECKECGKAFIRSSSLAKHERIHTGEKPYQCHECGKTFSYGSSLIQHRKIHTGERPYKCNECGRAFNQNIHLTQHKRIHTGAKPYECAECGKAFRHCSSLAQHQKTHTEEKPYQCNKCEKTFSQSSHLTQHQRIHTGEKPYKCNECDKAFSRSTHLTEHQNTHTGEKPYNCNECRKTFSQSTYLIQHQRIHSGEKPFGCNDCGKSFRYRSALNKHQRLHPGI
UniProt Q8NCK3: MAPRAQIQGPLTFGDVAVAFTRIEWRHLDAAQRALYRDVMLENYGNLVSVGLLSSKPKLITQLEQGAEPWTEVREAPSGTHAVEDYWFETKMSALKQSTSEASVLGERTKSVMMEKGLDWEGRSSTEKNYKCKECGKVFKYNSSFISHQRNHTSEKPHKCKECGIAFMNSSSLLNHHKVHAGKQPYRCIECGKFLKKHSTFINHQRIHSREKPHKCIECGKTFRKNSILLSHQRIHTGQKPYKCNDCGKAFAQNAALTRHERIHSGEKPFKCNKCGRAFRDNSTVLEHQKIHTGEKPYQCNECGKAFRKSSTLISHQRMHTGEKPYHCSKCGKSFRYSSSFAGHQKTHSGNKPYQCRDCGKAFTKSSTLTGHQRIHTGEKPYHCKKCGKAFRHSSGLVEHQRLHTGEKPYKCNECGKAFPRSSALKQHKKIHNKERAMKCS
UniProt Q8N720: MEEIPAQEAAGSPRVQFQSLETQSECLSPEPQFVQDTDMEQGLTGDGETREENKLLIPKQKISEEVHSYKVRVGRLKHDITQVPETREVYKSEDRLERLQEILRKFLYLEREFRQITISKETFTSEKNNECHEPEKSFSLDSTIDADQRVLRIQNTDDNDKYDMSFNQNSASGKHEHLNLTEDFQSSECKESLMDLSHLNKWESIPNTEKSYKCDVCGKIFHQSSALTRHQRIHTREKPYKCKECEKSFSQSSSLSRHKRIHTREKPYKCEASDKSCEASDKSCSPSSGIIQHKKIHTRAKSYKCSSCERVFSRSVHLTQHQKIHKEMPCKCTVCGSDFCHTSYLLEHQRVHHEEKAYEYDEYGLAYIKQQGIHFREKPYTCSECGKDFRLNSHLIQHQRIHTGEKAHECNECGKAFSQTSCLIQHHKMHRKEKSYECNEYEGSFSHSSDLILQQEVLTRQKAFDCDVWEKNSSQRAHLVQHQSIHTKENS
UniProt P17019: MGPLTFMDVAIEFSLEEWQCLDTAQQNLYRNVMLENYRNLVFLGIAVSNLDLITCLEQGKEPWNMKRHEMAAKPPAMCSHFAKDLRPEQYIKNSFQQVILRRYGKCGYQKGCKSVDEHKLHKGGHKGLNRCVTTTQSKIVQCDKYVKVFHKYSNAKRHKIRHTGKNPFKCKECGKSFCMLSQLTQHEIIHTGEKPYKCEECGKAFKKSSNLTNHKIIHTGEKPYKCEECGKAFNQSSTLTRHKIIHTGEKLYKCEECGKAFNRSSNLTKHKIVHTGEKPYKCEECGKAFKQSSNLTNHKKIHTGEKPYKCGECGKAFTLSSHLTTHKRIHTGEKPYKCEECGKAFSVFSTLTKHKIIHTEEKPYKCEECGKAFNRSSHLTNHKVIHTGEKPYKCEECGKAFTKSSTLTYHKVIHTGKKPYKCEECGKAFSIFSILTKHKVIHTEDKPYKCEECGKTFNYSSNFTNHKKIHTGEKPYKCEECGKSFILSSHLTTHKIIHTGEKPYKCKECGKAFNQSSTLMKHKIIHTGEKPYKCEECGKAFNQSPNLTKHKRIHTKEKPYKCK
UniProt Q96IQ9: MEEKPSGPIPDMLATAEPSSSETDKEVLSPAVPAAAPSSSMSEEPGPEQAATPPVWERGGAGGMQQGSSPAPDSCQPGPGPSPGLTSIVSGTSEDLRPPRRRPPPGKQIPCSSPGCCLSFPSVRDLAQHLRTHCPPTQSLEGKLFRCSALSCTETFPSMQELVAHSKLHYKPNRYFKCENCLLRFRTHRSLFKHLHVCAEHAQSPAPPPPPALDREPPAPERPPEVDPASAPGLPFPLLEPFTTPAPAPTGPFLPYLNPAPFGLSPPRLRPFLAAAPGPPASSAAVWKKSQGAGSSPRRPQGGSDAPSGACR
UniProt Q6NUN9: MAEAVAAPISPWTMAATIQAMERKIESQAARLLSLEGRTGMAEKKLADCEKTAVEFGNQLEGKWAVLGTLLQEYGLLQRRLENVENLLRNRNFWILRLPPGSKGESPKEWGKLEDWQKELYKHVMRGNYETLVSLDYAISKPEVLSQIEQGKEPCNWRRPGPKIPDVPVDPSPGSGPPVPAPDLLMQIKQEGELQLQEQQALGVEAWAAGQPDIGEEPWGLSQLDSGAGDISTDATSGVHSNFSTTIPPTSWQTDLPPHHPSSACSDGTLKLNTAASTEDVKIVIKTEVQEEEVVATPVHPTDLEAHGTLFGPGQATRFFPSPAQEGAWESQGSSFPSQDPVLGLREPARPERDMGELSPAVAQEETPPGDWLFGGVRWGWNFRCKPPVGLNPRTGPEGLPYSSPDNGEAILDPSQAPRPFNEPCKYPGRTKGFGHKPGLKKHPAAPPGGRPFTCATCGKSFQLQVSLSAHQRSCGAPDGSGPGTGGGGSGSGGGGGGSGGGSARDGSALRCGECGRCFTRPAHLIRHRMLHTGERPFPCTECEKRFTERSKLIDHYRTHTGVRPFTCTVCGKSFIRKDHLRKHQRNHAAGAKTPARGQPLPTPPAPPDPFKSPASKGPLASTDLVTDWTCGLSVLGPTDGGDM
UniProt Q96KM6: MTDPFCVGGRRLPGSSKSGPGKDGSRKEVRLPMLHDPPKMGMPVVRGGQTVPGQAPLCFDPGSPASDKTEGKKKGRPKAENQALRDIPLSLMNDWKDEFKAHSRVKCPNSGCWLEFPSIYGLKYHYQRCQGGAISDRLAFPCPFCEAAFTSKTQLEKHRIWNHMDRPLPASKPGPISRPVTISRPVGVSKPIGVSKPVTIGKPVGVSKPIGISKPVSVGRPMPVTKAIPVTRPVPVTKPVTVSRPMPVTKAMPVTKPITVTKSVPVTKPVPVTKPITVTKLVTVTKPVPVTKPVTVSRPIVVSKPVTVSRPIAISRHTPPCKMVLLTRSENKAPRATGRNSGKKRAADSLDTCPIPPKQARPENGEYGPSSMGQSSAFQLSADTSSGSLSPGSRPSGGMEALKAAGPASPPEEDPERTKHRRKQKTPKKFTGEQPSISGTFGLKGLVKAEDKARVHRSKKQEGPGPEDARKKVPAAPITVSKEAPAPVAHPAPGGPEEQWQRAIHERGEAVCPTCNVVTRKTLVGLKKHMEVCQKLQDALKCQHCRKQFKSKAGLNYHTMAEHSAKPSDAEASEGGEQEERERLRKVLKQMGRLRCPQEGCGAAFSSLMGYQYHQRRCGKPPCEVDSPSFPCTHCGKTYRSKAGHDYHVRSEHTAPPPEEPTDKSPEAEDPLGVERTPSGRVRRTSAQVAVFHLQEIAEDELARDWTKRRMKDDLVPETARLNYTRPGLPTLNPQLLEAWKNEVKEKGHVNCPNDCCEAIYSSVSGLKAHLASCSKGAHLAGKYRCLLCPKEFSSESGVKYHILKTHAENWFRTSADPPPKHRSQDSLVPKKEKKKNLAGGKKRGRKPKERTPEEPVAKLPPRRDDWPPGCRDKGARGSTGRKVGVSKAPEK
UniProt Q8N4W9: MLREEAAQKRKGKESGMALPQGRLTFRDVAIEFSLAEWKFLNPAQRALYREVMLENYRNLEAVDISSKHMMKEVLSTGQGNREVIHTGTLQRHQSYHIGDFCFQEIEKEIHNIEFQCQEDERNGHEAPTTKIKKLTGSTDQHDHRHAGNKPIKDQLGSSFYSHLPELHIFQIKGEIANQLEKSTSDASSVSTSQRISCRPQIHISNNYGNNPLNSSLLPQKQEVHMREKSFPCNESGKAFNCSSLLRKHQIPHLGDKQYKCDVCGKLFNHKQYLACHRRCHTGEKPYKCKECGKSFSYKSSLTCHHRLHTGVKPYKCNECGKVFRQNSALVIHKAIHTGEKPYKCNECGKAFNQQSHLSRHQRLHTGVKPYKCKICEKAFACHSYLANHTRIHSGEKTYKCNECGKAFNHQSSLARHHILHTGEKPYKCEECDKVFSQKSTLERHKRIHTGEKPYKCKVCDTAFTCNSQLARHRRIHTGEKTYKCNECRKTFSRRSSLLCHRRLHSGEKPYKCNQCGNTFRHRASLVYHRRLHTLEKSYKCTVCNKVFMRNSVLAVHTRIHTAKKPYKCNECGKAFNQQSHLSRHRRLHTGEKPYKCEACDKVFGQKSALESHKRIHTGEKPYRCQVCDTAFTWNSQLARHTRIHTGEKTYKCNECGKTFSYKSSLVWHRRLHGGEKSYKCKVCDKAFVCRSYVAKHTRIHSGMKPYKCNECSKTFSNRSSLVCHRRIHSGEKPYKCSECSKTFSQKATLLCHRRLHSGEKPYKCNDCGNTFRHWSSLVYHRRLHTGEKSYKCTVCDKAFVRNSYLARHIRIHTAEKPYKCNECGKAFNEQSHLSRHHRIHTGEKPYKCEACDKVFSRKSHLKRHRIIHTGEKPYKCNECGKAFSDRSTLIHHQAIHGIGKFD

How the values were obtained:
Experiment in all cases: log2 fold change, soluble protein after heating vs DMSO (PISA); higher = thermal stabilisation; K562 lysate, 10 uM; active = over 0.2 and 3.5 SD of the protein, either way, in both replicates (recomputed)
[1] = compound: C#Cc1cccc(Nc2ncnc3cc(OCCOC)c(OCCOC)cc23)c1 [erlotinib]
Outline: (§1)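 Soluble protein was defined as the supernatant remaining after 21,000xg for 90 min, following pooling of heated aliquots and adjustment to 0.5% NP-40 at 4°C. Before that, crude K562 extract at 1 mg/mL protein in PBS pH 7.4 with 1 mM MgCl2 was treated with 10 μM compound for 30 min and heated for 3 min across 48°C-58°C. Quantification used TMTpro 16plex LC-MS/MS with channel sums equalised, and values are log-two fold changes in thermal stability relative to solvent controls from duplicates.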

[2] = compound: C1=CC(=CC=C1C2=NC3=C(N2)C=C(C=C3)C(=O)N)OC4=CC=C(C=C4)Cl
Outline: as §1

[3] = compound: C1=CC=C(C=C1)C2=NC(=C(N2)C3=CC=NC=C3)C4=CC(=C(C=C4)Cl)O
Outline: as §1

[4] = compound: C1COCCN1CCN2C3=CC=CC=C3N=C2NC(=O)C4=CC(=CC=C4)[N+](=O)[O-] [IRAK-1-4 Inhibitor I]
Outline: as §1

[5] = compound: C/C(=N\NC(=O)C1=CC(=CC=C1)S(=O)(=O)N2CCOCC2)/C3=C(C=CC(=C3)Cl)O
Outline: as §1

[6] = compound: C1=CC2=C(C=CC(=C2)/C=C\3/C(=O)NC(=NCC4=CC=CS4)S3)N=C1
Outline: as §1

[7] = compound: C1=CC2=NC=CN=C2C=C1/C=C/3\C(=O)NC(=O)S3
Outline: as §1

[8] = compound: C1=CC=C2C(=C1)C3=NNC4=CC=CC(=C43)C2=O
Outline: as §1

[9] = compound: C1CCN(C1)C(=O)NC2=CC=CC(=C2)NC3=NC=C(C(=N3)NCCC4=CN=CN4)Br
Outline: as §1

[10] = compound: C1CN(CCC1(CC2=CC=C(C=C2)Cl)N)C3=NC=NC4=C3C=CN4
Outline: as §1

Measured: log2 fold change

ZNF281 (UniProt Q9Y2X9)
inactive: [1] -0.191 | [2] -0.106 | [3] 0.006 | [4] 0.069

ZNF816 (UniProt Q0VGE8)
inactive: [3] 0.013 | [4] -0.068

ZNF526 (UniProt Q8TF50)
inactive: [1] 0.009 | [2] 0.042 | [3] -0.018 | [4] -0.021

ZNRF2 (UniProt Q8NHG8)
inactive: [5] -0.015 | [6] -0.02 | [7] 0.142 | [3] -0.046 | [8] 0.082 | [9] -0.018 | [10] -0.034 | [4] -0.013

ZNF280A (UniProt P59817)
inactive: [1] 0.105 | [2] -0.001 | [3] -0.015 | [4] 0.009

ZNF184 (UniProt Q99676)
inactive: [3] -0.005 | [4] -0.006

ZNF485 (UniProt Q8NCK3)
inactive: [3] 0.115 | [4] 0.054

ZNF655 isoform 3 (UniProt Q8N720)
inactive: [9] 0.011 | [10] -0.078

ZNF708 (UniProt P17019)
inactive: [5] -0.09 | [6] 0.117 | [8] -0.037 | [9] 0.006 | [10] -0.166

2 successive entries out of the list so far, quoted:
ZNF281 (UniProt Q9Y2X9)
inactive: [1] -0.191 | [2] -0.106 | [3] 0.006 | [4] 0.069

ZNF816 (UniProt Q0VGE8)
inactive: [3] 0.013 | [4] -0.068

Following part

ZNF414 isoform 2 (UniProt Q96IQ9)
inactive: [3] -0.045 | [9] 0.234 | [10] -0.054 | [4] -0.033

ZNF746 isoform 2 (UniProt Q6NUN9)
inactive: [3] -0.034 | [4] 0.184

ZNF512B (UniProt Q96KM6)
inactive: [3] -0.016 | [4] -0.007

ZNF808 (UniProt Q8N4W9)
inactive: [3] 0.166 | [4] 0.235
